This passage reports AC50 results from PubChem BioAssay AID1487 (National Center for Advancing Translational Sciences (NCATS), 2009).

Some of the results follow. Shown are side measurements of this screen, not its main read-out; they come without a call. The list favours compounds with an active or inconclusive main result. Words in brackets tell the shape of the fitted curve; partial curves, single points and poor fits give uncertain potencies.

A short description of the assay: qHTS Assay for Modulators of Lamin A Splicing. The note with it: HeLa LMNA splicing GFP/RFP minigene ratio, 48 h. The procedure, abridged:
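Read-out is the ratio of GFP to DsRed2 object intensity, acquired by 488 nm laser-scanning cytometry on HeLa lamin A-EGFP minigene reporter cells. Compound incubation 48 hrs at 37 °C in Opti-MEM with 2% FBS; DMSO 0.5% final.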
(In qHTS, concentration-response curves come from the screen itself.)

Setting [1] is: measured here: RFP viability control channel.
The mark [2] stands for this setting: measured here: GFP splicing reporter channel.

Usually AC50 stands for the concentration at which the activity in the assay is half-maximal. As for `Cc1ccc(NC(=O)CNC(=O)c2cccs2)cc1S(=O)(=O)Nc1ccc(Cl)cc1`, the AC50 under setting [1] was 14.1 µM [rising, single point].

Take `CCOC(=O)C1(CCCc2ccccc2)CCN(C(=O)C2CCCO2)CC1` (configuration not stated): the AC50 reads like this: under setting [2], 0.00355 µM [falling, full curve, poor fit]; under setting [1], 0.00316 µM [falling, full curve, poor fit].

For the molecule `CCN(CC)CCOC(=O)c1ccc(NC(=O)Cn2ncc3c([nH]c4ccc(C)cc43)c2=O)cc1`, the AC50 under setting [2] is 11.2 µM [falling, partial curve] and the AC50 under setting [1] was 35.5 µM [falling, partial curve].

For the molecule `Cc1ccccc1N1CCN(c2ccc(NC(=O)C3CCCCC3C(=O)O)cc2)CC1` (configuration not stated), the AC50 is 17.8 µM [rising, partial curve] under setting [2] and 25.1 µM [rising, partial curve] under setting [1].

Take `Cc1cc(Oc2ccc(C#N)cc2)nc(NCc2ccccc2)n1`: the AC50 runs as follows: under setting [2], 3.16 µM [rising, partial curve]; under setting [1], 3.98 µM [rising, single point].

On to `O=C(/C=C/Nc1ccc(Br)cc1F)c1ccccc1`, for which the AC50 was 0.794 µM [rising, partial curve] under setting [2] and 0.282 µM [rising, full curve] under setting [1].

With `Fc1cccc(NC(=S)NNc2c3ccccc3nc3ccccc23)c1`, the AC50 under setting [1] is 31.6 µM [rising, single point].

Regarding `CCN1CCN(c2ccc(N=Cc3ccccc3O)cc2)CC1`, the AC50 under setting [1] was 12.6 µM [rising, partial curve].

For the molecule `Cc1ccccc1CNC(=O)c1ccc(CSCc2ccccc2)cc1`, the AC50 by setting is: under setting [2], 35.5 µM [rising, single point]; under setting [1], 35.5 µM [rising, single point].

As to `Cc1[nH]n(-c2ccccc2)c(=O)c1C=Nc1cccc2cccnc12`, the AC50 under setting [1] was 17.8 µM [rising, single point].

For `CCN(CC)c1nc(SCCOC(=O)Nc2ccccc2)nc(N(CC)CC)n1`, the AC50 under setting [1] is 35.5 µM [rising, single point].

`COc1ccc(N2C(=O)C(Cl)=C(Nc3ccccc3OC)C2=O)cc1`: under setting [1], the AC50 is 17.8 µM [rising, single point].

For `O=C1[C@@H]2[C@@H]3C[C@@H]([C@H]4ON=C(c5ccc(OCc6ccccc6)cc5)[C@@H]34)[C@@H]2C(=O)N1c1ccc2c(c1)OCO2`, the AC50 under setting [1] is 6.31 µM [rising, single point].

For `Clc1ccccc1CONc1ncnc2nonc12`, the AC50 runs as follows: under setting [2], 17.8 µM [rising, single point]; under setting [1], 25.1 µM [rising, single point].

As for `Nc1ccc(OCc2ccco2)cc1`, the AC50 under setting [2] is 0.282 µM [falling, full curve, poor fit].

For `COC(=O)c1cc(NC(=O)CN(c2cccc(OC)c2)S(=O)(=O)c2ccccc2)ccc1Cl`, the AC50 under setting [1] is 22.4 µM [rising, partial curve, poor fit].

As for `Cc1cc(OCC(=O)O/N=C(\N)c2ccccc2)cc(C)c1Cl`, the AC50 under setting [1] is 20 µM [rising, single point].

As for `CCCn1c2ccccc2c2cnn(CC(=O)NCCc3ccc(OCC)cc3)c(=O)c21`, the AC50 is, setting by setting: under setting [2], 22.4 µM [falling, partial curve]; under setting [1], 15.8 µM [falling, single point].

As for `CC(C)CNC(=S)N1CCN(C(c2ccccc2)c2ccccc2)CC1`, the AC50 was 35.5 µM [rising, single point] under setting [2] and 35.5 µM [rising, single point] under setting [1].

With `Cc1ccc(Cl)cc1N1CCN(C(=O)Cn2ccc3ccccc3c2=O)CC1`, the AC50 was 11.2 µM [rising, partial curve, poor fit] under setting [2] and 15.8 µM [rising, partial curve] under setting [1].

With `c1ccc(Sc2nc(N3CCCCC3)nc(N3CCCCC3)n2)nc1`, the AC50 under setting [2] is 22.4 µM [rising, single point].

Regarding `Cc1cccc(S(=O)(=O)NCCC(=O)OCC(=O)Nc2ccc(C#N)cc2)c1`, the AC50 by setting is: under setting [2], 0.0794 µM [rising, full curve, poor fit]; under setting [1], 0.0891 µM [rising, full curve, poor fit].

As to `Cc1cccc2sc(NNC(=O)c3ccc4c(c3)OCCO4)nc12`, the AC50 reads like this: under setting [2], 0.794 µM [falling, single point]; under setting [1], 17.8 µM [rising, single point].

For the molecule `C/C(=N\NC(=O)CSCc1ccccc1Cl)c1cccc(NC(=O)c2ccccc2)c1`, under setting [1], the AC50 was 2 µM [rising, full curve].

With `CC1CC(C)CN(C(=O)c2cccc(S(=O)(=O)Nc3cc(C(F)(F)F)ccc3Cl)c2)C1` (configuration not stated), under setting [1], the AC50 was 12.6 µM [rising, partial curve].

For the molecule `CCN(Cc1cc(=O)n2ccsc2n1)c1cccc2ccccc12`, the AC50 under setting [1] is 31.6 µM [rising, single point].

Consider `Cc1cc(C)nc(SCc2cc(=O)c(OC(=O)c3ccc(S(=O)(=O)N4CCCC4)cc3)co2)n1`, for which the AC50 under setting [2] was 0.282 µM [rising, partial curve, poor fit].

In the case of `Cc1ccc(S(=O)(=O)Cn2nnnc2C(CC(C)C)N2CCN(C(=O)c3ccco3)CC2)cc1` (configuration not stated), the AC50 under setting [2] was 12.6 µM [rising, single point].

Regarding `O=C(CNC(=O)c1ccccc1)N/N=C/c1cccs1`, the half-maximal activity concentration (AC50) under setting [1] is 1.58 µM [falling, partial curve, poor fit].

Take `OC(CNCCCN1CCCCC1)COc1ccccc1` (configuration not stated): the AC50 under setting [1] is 28.2 µM [rising, single point].

`COc1ccc(F)cc1S(=O)(=O)NCCc1c(C)[nH]c2c(Cl)cccc12`: the AC50 is, setting by setting: under setting [2], 31.6 µM [falling, partial curve, poor fit]; under setting [1], 20 µM [falling, partial curve, poor fit].

With `O=c1[nH]n(CC2COC3(CCCCC3)O2)c(=O)c2ccccc12` (configuration not stated), the AC50 was 8.91 µM [rising, partial curve] under setting [2] and 11.2 µM [rising, partial curve] under setting [1].

For `CC(=O)N1CCN(c2ccc(NC(=O)c3ccc(Br)o3)cc2Cl)CC1`, under setting [2], the AC50 was 35.5 µM [falling, partial curve].

Turning to `CCCNC(=S)Nc1ccc(Cl)cc1Cl`, the AC50 under setting [2] is 31.6 µM [rising, single point] and the AC50 under setting [1] was 15.8 µM [rising, single point].

As to `S=C(S)OC1CC2CC1C1CCCC21` (configuration not stated), the AC50 runs as follows: under setting [2], 17.8 µM [falling, single point]; under setting [1], 11.2 µM [rising, partial curve, poor fit].

With `O=C(Nc1ccc(Cl)cc1)N1CCN(c2ncccn2)CC1`, the AC50 by setting is: under setting [2], 3.16 µM [falling, full curve, poor fit]; under setting [1], 3.98 µM [falling, full curve, poor fit].

In the case of `Cc1ccc(Cl)cc1N1CCN(C(=O)COc2ccc(S(=O)(=O)NC(C)C)cc2)CC1`, the AC50 under setting [1] is 3.98 µM [rising, single point].

Consider `COc1ccc(C(c2nnnn2Cc2cccs2)N2CCN(c3ccc(F)cc3)CC2)cc1OC` (configuration not stated), for which, under setting [1], the AC50 was 17.8 µM [rising, single point].

With `COc1ccc(/C=N/S(=O)(=O)c2ccccc2)cc1OC`, the AC50 under setting [2] was 0.1 µM [rising, full curve] and the AC50 under setting [1] was 0.1 µM [rising, full curve, poor fit].

Regarding `Cc1nc(C)c(-c2csc(Nc3cccc(O)c3)n2)s1`, the AC50 under setting [2] is 14.1 µM [rising, partial curve, poor fit].

As for `Cn1c(NCCCN2CCOCC2)nc2c1c(=O)n(Cc1ccc(Cl)cc1Cl)c(=O)n2C`, the AC50 under setting [1] is 8.91 µM [rising, partial curve, poor fit].

For the molecule `Cc1ccc(C(=O)N/N=C/C2=Cc3ccccc3OC2C)cc1` (configuration not stated), under setting [1], the AC50 is 0.00447 µM [rising, full curve, poor fit].

`CCOC(=O)N1CCN(C(=O)COc2ccc(S(=O)(=O)Nc3ccc(OCC)cc3)cc2)CC1`: the concentration at half-maximal activity (AC50) is 10 µM [rising, partial curve] under setting [2] and 12.6 µM [rising, partial curve] under setting [1].

Take `Cc1ccc(Cl)cc1N1CCN(C(=O)c2cccc3c(=O)c(C)c(-c4ccccc4)oc23)CC1`: the AC50 under setting [2] is 5.62 µM [rising, single point] and the AC50 under setting [1] is 5.62 µM [rising, single point].

`COc1cc(NC(=O)CCc2nc(-c3cccs3)no2)cc(OC)c1OC`: the AC50 by setting is: under setting [2], 3.16 µM [rising, partial curve, poor fit]; under setting [1], 35.5 µM [rising, single point].

With `CCc1ccc(NC(=O)Cn2c(SC)nc3ccccc32)cc1`, under setting [1], the AC50 was 12.6 µM [rising, partial curve].

Regarding `O=C(Nc1ncc2c(n1)-c1ccccc1CC2)C1CC1`, the AC50 under setting [1] is 0.02 µM [falling, full curve, poor fit].

On to `Cc1c(/C=N/NC(=O)C(NC(=O)c2ccc3c(c2)OCO3)C(C)C)c2ccccc2n1C` (configuration not stated), for which, under setting [1], the AC50 was 11.2 µM [rising, partial curve].

As for `CCC(Oc1ccccc1)C(=O)Nc1ccsc1C(=O)OC` (configuration not stated), the AC50 was 11.2 µM [rising, partial curve, poor fit] under setting [2] and 11.2 µM [rising, partial curve] under setting [1].

On to `Cc1ccc(CNC(=O)c2cc3c(C)nc4ccccc4c3o2)cc1`, for which, under setting [1], the concentration at half-maximal activity (AC50) is 5.01 µM [rising, full curve].

For the molecule `Cc1cccc(N2CCN(C3=NC(=O)C(=C4CCCCC4)S3)CC2)c1`, the AC50 under setting [1] is 17.8 µM [rising, partial curve].

As to `O=C(c1cccs1)N1CCc2c([nH]c3ccccc23)C1c1ccc(Cl)cc1` (configuration not stated), the AC50 under setting [1] was 14.1 µM [rising, single point].

On to `COc1ccc(N2CCN(Cc3cc(=O)oc4ccc5ccccc5c34)CC2)cc1`, for which the AC50 under setting [2] is 2.51 µM [rising, full curve, poor fit].

With `Cc1ccc2c(c1)N(CC(=O)N1CCN(c3nc4ccccc4s3)CC1)C(=O)C(C)O2` (configuration not stated), under setting [1], the half-maximal activity concentration (AC50) was 35.5 µM [rising, single point].

For the molecule `O=C(/C=C/c1ccc([N+](=O)[O-])cc1)NCCc1ccc(F)cc1`, the AC50 under setting [1] was 25.1 µM [rising, single point].
